Measured values taken from patent KR20120049206A.
These are yes or no findings as the source states them, for the method shown. Some entries that bind do so weakly or less than the wild type. Where a sequence is shown, tags or fusion partners need not be part of it.

B1: GFP 단일 도메인 항체 11F5 (VHH)
VHH: ESGGGSVQSGGSLRLSCSGVTGSDYCLGWFRQAPGREREGVAASSRYGSTYYGDFVRGRFTISRDSAKNTLILQMNNLQPEDTAMYYCAASRRVGSCSTYERVFAYWGQGTQVTVSS
B2: GFP 단일 도메인 항체 13C2 (VHH)
VHH: GGGGSVQAGGSLRLSCAASGYISDSHGRNCMGWFRQAPGKEREAVARIYSRLGTTYYADSVKGRFTISRDNAKNTLYLQMHSLKPEDTAMYYCAAVGGLCIDKETPTDYPFWGQGTQVTVSS
B3: GFP 단일 도메인 항체 13H2 (VHH)
VHH: ESGGGSVQAGGSLKLSCAASGYISSNCMGWFRQAPGKEREGVASIYRGYGNTYYTDSVKGRFTISQDNAKNTIYLQMNSLKPEDTARYYCAAVNCARWPFDREYNYWGQGTQVTVSS
B4: GFP 단일 도메인 항체 2G2 (VHH)
VHH: EWGGSVQAGGSLRLSCSASGFASSPGCMAWFRQAPGKEREGVAEIATRSGSAYYADSVKGRFTISQDNAKNTLYLQMNSLKPEDTAIYYCAASRLRCTPAADFSRIPAYAMDYWGKGTQVTVSS
B5: GFP 단일 도메인 항체 2G9 (VHH)
VHH: ESGGGSVQAGGSLRLSCVVSRSTYTSNCMGWFRQAPGKEREEVASIYTGGGITYYADSVKGRFTVSQDNAKNTVYLQMNSLKPEDTAMYYCAAGRGSWSCGMGPDEYKYWGQGTQVTVSS
B6: GFP 단일 도메인 항체 3H8 (VHH)
VHH: ESGGGSVQSGGSLRLSCVASGSTDRPAYMAWFRQAPGKEREGVATIYTEFGSQYYADSVKGRFTISQDNAKRTAYLQMNSLKPEDTAMYYCAATTAFRVLGTRKLDAAQYAYWGQGTQVTVSS
B7: GFP 단일 도메인 항체 7C8 (VHH)
VHH: SWGGSVQTGGSLGLSCTTSLDGYSSVCMGWFRQTPGKEREGVATIHRAFGDTYYADSVKGRFTISEDSAKNTVYLRMNSLKPEDTGMYYCAAGRPKSGSAWNCRDAEYVYWGQGTQVTVSS
B8: GFP 단일 도메인 항체 8B9 (VHH)
VHH: ESGGGSVQAGGSLRLSCAASGYTVSRGCMAWFRQVPGKEREGVAAINSGDGTTYYADSVKGRFTISQDNAKNTVYLQMNSLEPEDTSIYYCAASRLRCPWNLVSASWYDFWGQGTQVTVSS
B9: GFP 단일 도메인 항체 8G4 (VHH)
VHH: ESGGGSVQAGGSLRLSCAAPRSTYTSNCMGWFRQAPGKEREEVASIYTGGDITYYADSVKGRFTMSQDNARSTVYLQMNSLKPEDTAMYYCAAGRGSWSCGSGPDEYKYWGQGTQVTVSS
B10: GFP 단일 도메인 항체 9H11 (VHH)
VHH: SGGGSVQSGGSLRLTCAASGRTSSISYMGWFRQSPGKEREGVAFIDRRDSTTYADLVKGRFTISRDNARNTLYLQMNSLKPEDTAMYYCAARIRGYYSRPALSADFDYWGQGTQVTVSS
B11: GFP 단일 도메인 항체 10A8 (VHH)
VHH: SLGGGSVQAGGSLRLSCAASGFAMSTYCMAWFRQAPGKEREGVATLSPLGILSHYADSVKGRFTVSRDNAKNTLSLQMNSLIPEDTAMYYCAAMPRPDGGAHGCVSWLAYNFWGQGTQVTVSS

These binders were tested against GFP (green fluorescent protein), 항원용 GFP (Aequorea victoria) [GFP: P42212] (assay: phage ELISA, 2 ug GFP per well coated, anti-M13-HRP).
With B1 the binding was “binds”.
With B2 the binding was “binds”.
B3 was tested, and the binding was “binds”.
For B4, the binding was “binds”.
With B5 the binding was “binds”.
For B6, the binding was “binds”.
For B7, the binding was “binds”.
For B8, the binding was “binds”.
B9 was tested, and the binding was “binds”.
For B10, the binding was “binds”.
For B11, the binding was “binds”.
